This is an account of results in the supplement of paper PMC10849652.

The other results are listed elsewhere or left out.

Holding throughout (test): log2 fold change, soluble protein after heating vs DMSO (PISA); higher = thermal stabilisation; K562 cells, 10 uM, 30 min; active = over 0.2 and 3.5 SD of the protein, either way, in both replicates (recomputed)
Compound in one assay: Cc1ccc(NC(=O)c2ccc(CN3CC[C@H](N(C)C)C3)c(C(F)(F)F)c2)cc1Nc1nccc(-c2cncnc2)n1 [bafetinib]
The gist of the method: (§1)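 For each measurement, 10 μM compound was applied for 30 min to K562 cells at 2×10^6 cells/mL. Aliquots were heated for 3 min across 48°C-58°C, pooled, and extracted in PBS with 0.5% NP-40 at 4°C; the supernatant after 21,000xg for 90 min was soluble protein. This was quantified by TMTpro 16plex LC-MS/MS with channel sums equalised, and thermal stability was reported relative to control samples from duplicates, on a log2 fold-change scale.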

Compound in assay [1]: Cc1cccc(CC(=O)N2CCc3c2ccc(-c2cn(C)c4ncnc(N)c24)c3F)n1
A digest of the protocol:
as §1

Compound in the next assay: Cc1cn(-c2cc(NC(=O)c3ccc(C)c(Nc4nccc(-c5cccnc5)n4)c3)cc(C(F)(F)F)c2)cn1 [nilotinib]
The gist of the method:
as §1

Compound in assay [2]: Cc1nc(Nc2n[nH]c3c2CN(C(=O)N[C@H](CN(C)C)c2ccccc2)C3(C)C)c2sccc2n1
The gist of the method: as §1

Compound in a further assay: Cc1nc(Nc2ncc(C(=O)Nc3c(C)cccc3Cl)s2)cc(N2CCN(CCO)CC2)n1 [dasatinib]
A digest of the protocol: as §1

Compound in assay [3]: Cc1ncc(-c2ccnc(Nc3ccc(S(C)(=O)=O)cc3)n2)n1C(C)C
The gist of the method: as §1

Compound in assay [4]: Cn1cc(-c2ccc3c(c2)CCN3C(=O)Cc2cccc(C(F)(F)F)c2)c2c(N)ncnc21
A digest of the protocol: as §1

Compound in assay [5]: Cn1cc(-c2ccc3nnc(C(F)(F)c4ccc5ncccc5c4)n3n2)cn1
A digest of the protocol: as §1

Compound in a further assay: Cn1cncc1[C@@](N)(c1ccc(Cl)cc1)c1ccc2c(c1)c(-c1cccc(Cl)c1)cc(=O)n2C [tipifarnib]
A digest of the protocol: as §1

Compound in the next assay: FC(F)(F)c1ccc(/C=C/c2nc(COc3ccc(CCCCn4ccnn4)cc3)co2)cc1 [mubritinib]
The gist of the method: as §1

Consider UTP14A (UniProt Q9BVJ6), for which the log2 fold change in the assay with bafetinib was inactive: 0.157; in assay [1] it was inactive: 0; in the assay with nilotinib, inactive: 0.011; in assay [2], inactive: -0.009; with dasatinib, inactive: 0.07; in assay [3], inactive: -0.118. Further, the log2 fold change is inactive: -0.285 in [4], inactive: -0.09 in assay [5], inactive: 0.089 in the assay with tipifarnib and inactive: -0.086 with mubritinib.

Consider UNC13A (UniProt Q9UPW8), for which, in the assay with bafetinib, the log2 fold change is inactive: 0.02.

USP14 (UniProt P54578): the log2 fold change with bafetinib is inactive: -0.03; in [1], inactive: 0.012; in the assay with nilotinib it was inactive: -0.006; in assay [2], inactive: -0.026; in the assay with dasatinib, inactive: -0.087; in assay [3], inactive: 0.015. Also, the log2 fold change in [4] was inactive: -0.001; in [5], inactive: -0.065; with tipifarnib, inactive: -0.067; with mubritinib, inactive: 0.029.

Take USP5 (UniProt P45974): the log2 fold change with bafetinib is inactive: -0.06; in assay [1], inactive: 0.008; with nilotinib, inactive: 0.001; in assay [2], inactive: -0.041; with dasatinib, inactive: -0.023; in assay [3] it was inactive: -0.005. Besides, the log2 fold change was inactive: 0.023 in assay [4], inactive: 0.027 in [5], inactive: 0.016 with tipifarnib and inactive: 0.043 in the assay with mubritinib.

UQCRC1 (UniProt P31930): the log2 fold change with bafetinib was inactive: 0.017; in [1], inactive: -0.079; in the assay with nilotinib it was inactive: 0.024; in [2], inactive: -0.006; in the assay with dasatinib, inactive: 0.014; in assay [3], inactive: -0.025. Besides, the log2 fold change in assay [4] was inactive: 0.033; in assay [5] it was inactive: 0.012; with tipifarnib, inactive: 0.028; with mubritinib, inactive: 0.033.

Regarding UPF3B (UniProt Q9BZI7), the log2 fold change was inactive: 0.108 with bafetinib; inactive: 0.055 in assay [1]; inactive: -0.15 with nilotinib; inactive: 0.098 in assay [2]; inactive: 0.143 with dasatinib; inactive: -0.085 in assay [3]. Moreover, the log2 fold change in assay [4] is inactive: -0.225; in assay [5], inactive: -0.24; in the assay with tipifarnib it was inactive: 0.106; with mubritinib it was inactive: -0.098.

For the target URI1 isoform 4 (UniProt O94763), the log2 fold change was inactive: 0.137 with bafetinib; inactive: -0.091 in assay [1]; inactive: -0.142 with nilotinib; inactive: -0.187 in assay [2]; inactive: -0.06 in the assay with dasatinib; inactive: 0.125 in [3]. Also, the values for the log2 fold change in [4] and in [5] were inactive: 0.37 and inactive: 0.242, respectively.

For UMPS (UniProt P11172), the log2 fold change in the assay with bafetinib is inactive: -0.027; in assay [1], inactive: -0.035; in the assay with nilotinib, inactive: 0.024; in assay [2], inactive: -0.017; with dasatinib, inactive: 0.006; in [3], inactive: -0.007. Moreover, the log2 fold change in [4] was inactive: 0.02; in assay [5], inactive: 0.022; in the assay with tipifarnib it was inactive: -0.025; in the assay with mubritinib it was inactive: 0.049.

Turning to USP10 isoform 2 (UniProt Q14694), the log2 fold change with bafetinib is inactive: 0.012; in assay [1] it was inactive: -0.032; with nilotinib, inactive: -0.016; in [2], inactive: -0.033; with dasatinib it was inactive: -0.036; in [3] it was inactive: 0.014. Further, the log2 fold change in assay [4] was inactive: -0.06; in assay [5] it was inactive: -0.019; with tipifarnib it was inactive: 0.03; with mubritinib, inactive: -0.034.

As to UFL1 (UniProt O94874), the log2 fold change is inactive: 0.032 in the assay with bafetinib; inactive: 0.018 in assay [1]; inactive: -0.119 in the assay with nilotinib; inactive: -0.009 in [2]; inactive: -0.165 in the assay with dasatinib; inactive: 0.083 in [3]. Moreover, the log2 fold change in assay [4] was inactive: -0.013; in assay [5], inactive: -0.007; in the assay with tipifarnib, inactive: -0.052; in the assay with mubritinib it was inactive: 0.062.

With USF2 (UniProt Q15853), the log2 fold change with bafetinib is inactive: 0.026; in assay [1], inactive: 0.043; with nilotinib, inactive: 0.032; in assay [2] it was inactive: -0.074; with dasatinib it was inactive: -0.017; in [3] it was inactive: 0.086. The log2 fold change in [4] was inactive: -0.019; in [5] it was inactive: 0.012; with tipifarnib, inactive: 0.015; in the assay with mubritinib, inactive: -0.061.

Take URI1 (UniProt O94763): the log2 fold change with bafetinib is inactive: 0.074; in assay [1], inactive: 0.091; with nilotinib it was inactive: 0.023; in [2], inactive: -0.006; with dasatinib it was inactive: -0.019; in assay [3], inactive: 0.074. Also, the log2 fold change in assay [4] is inactive: 0.065; in assay [5], inactive: 0.04; with tipifarnib, inactive: 0.044; in the assay with mubritinib, inactive: 0.074.

VAPA (UniProt Q9P0L0): the log2 fold change with bafetinib was inactive: 0.061; in [1] it was inactive: -0.176; in the assay with nilotinib, inactive: -0.038; in assay [2], inactive: -0.008; in the assay with dasatinib, inactive: 0.031; in assay [3], inactive: 0.004. Further, the log2 fold change was inactive: 0.01 in [4], inactive: 0.015 in assay [5], inactive: -0.02 with tipifarnib and inactive: 0.004 with mubritinib.

For URGCP (UniProt Q8TCY9), the log2 fold change with bafetinib is inactive: 0.09; in assay [1], inactive: -0.007; with nilotinib it was inactive: 0.096; in assay [2], inactive: -0.435; in the assay with dasatinib, inactive: -0.04; in [3] it was inactive: 0.254. The log2 fold change in assay [4] is inactive: 0.026; in [5], inactive: -0.013; with tipifarnib, inactive: 0.054.

Consider UGDH (UniProt O60701), for which the log2 fold change with bafetinib is inactive: 0.018; in assay [1] it was inactive: 0.062; with nilotinib, inactive: -0.045; in [2], active: -0.377; in the assay with dasatinib it was inactive: -0.043; in assay [3], inactive: -0.24. In addition, the log2 fold change in [4] is inactive: 0.151; in assay [5] it was inactive: 0.09; with tipifarnib it was inactive: -0.034; with mubritinib, inactive: 0.202.

As for VARS (UniProt P26640), the log2 fold change with bafetinib was inactive: 0.024; in assay [1], inactive: -0.014; with nilotinib, inactive: -0.043; in assay [2], inactive: -0.002; with dasatinib, inactive: -0.039; in assay [3], inactive: 0.029. Besides, the log2 fold change in assay [4] was inactive: -0.033; in assay [5] it was inactive: -0.054; with tipifarnib it was inactive: -0.08; in the assay with mubritinib, inactive: 0.035.
